Experimental data taken from paper PMC11523043.
These are yes or no findings as the source states them, for the method shown. Binding seen in cells or lysates may run through a third protein. Some results given as binding are weak or reduced against the parent protein; the word gives no strength. For some of these results: Where a sequence is shown, tags or fusion partners need not be part of it.

Columns and labels:
[1] = biological target: T1, endogenous USP36 (human (endogenous in HEK293, H1299)) (UniProt Q9P275); experiment: co-IP; 293 cell lysates immunoprecipitated with anti-USP36, IB with anti-Las1L antibody; both endogenous
T1 sequence: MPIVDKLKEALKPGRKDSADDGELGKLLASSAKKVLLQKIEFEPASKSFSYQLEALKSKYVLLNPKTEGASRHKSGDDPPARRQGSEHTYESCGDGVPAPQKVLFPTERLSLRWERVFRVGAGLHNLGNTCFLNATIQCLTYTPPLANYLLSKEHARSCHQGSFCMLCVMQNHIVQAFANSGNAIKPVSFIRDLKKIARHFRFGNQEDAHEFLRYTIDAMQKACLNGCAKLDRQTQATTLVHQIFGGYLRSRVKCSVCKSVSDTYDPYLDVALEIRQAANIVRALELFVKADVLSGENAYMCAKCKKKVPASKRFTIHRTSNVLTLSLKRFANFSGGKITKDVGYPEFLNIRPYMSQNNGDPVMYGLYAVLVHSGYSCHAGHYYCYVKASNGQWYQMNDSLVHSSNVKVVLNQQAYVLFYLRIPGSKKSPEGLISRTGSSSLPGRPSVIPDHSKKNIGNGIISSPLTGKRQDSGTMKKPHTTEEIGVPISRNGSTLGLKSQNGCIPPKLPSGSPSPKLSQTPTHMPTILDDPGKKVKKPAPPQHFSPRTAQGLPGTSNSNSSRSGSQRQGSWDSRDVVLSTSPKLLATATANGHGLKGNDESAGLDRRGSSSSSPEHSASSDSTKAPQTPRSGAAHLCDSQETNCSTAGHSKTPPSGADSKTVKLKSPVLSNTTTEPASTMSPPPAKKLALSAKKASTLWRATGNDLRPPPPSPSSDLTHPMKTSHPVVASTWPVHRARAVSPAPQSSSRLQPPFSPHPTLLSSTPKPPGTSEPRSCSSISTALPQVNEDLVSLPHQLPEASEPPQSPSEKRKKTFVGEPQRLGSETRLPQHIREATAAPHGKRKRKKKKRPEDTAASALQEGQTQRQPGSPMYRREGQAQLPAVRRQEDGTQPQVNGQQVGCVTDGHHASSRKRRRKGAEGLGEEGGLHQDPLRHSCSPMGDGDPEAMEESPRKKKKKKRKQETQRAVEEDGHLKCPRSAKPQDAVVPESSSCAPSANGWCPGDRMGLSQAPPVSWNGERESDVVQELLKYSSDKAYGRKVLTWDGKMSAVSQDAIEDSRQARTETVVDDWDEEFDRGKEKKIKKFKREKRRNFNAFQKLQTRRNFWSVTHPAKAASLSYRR

Flag-tagged USP36 [2] = biological target: T2, Flag-tagged USP36 (UniProt Q9P275); experiment: co-IP; soluble nucleolar fraction of HeLa cells stably expressing Flag-USP36 (high-salt RIPA lysis, diluted), anti-Flag antibody, followed by IB
T2 sequence: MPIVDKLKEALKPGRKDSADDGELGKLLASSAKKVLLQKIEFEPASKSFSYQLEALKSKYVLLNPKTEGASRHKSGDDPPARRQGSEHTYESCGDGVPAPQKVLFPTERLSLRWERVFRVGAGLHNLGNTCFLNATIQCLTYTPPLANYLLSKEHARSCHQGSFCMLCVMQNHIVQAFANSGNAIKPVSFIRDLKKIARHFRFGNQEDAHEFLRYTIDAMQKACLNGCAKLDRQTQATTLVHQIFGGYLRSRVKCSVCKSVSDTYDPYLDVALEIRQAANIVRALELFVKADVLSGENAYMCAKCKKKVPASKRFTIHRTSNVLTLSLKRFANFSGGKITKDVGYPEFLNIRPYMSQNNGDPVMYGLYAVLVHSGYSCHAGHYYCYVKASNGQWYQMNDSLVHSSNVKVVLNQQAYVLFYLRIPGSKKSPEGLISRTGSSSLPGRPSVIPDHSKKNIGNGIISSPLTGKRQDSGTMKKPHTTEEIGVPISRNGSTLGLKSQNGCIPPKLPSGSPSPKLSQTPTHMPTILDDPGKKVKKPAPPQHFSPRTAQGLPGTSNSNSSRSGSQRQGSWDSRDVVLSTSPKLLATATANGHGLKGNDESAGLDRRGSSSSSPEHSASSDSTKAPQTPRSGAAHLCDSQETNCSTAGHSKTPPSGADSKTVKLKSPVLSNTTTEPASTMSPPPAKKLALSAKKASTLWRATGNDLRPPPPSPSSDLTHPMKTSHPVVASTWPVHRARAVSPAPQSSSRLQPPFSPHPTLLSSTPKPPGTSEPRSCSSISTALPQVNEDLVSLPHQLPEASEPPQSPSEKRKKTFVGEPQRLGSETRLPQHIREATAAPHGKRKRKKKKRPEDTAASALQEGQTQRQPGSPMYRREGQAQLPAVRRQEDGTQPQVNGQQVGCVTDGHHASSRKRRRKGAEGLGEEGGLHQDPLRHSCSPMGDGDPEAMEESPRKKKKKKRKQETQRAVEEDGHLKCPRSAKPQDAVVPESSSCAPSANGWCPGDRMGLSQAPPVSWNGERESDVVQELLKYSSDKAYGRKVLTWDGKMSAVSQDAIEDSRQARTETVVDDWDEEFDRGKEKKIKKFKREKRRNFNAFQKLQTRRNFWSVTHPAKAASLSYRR

Flag-tagged USP36 [3] = biological target: T2, Flag-tagged USP36; experiment: co-IP; lysates of cells (HEK293, HeLa or H1299) transfected with the Flag-tagged bait, anti-Flag (M2) agarose, 4°C for 4 hours, 50 mmol/L Tris-HCl pH 8.0, 0.5% Nonidet P-40, 150 mmol/L NaCl; endogenous partner detected by IB; for Flag-USP36 also in the presence of 100 μg/mL RNase A and 100 U/mL RNase T1
[4] = biological target: T3, Flag-USP36 C-terminal nucleolar localization signal (NoLS)-containing region (amino acids 801-1121) (UniProt Q9P275); experiment: as above
T3 sequence: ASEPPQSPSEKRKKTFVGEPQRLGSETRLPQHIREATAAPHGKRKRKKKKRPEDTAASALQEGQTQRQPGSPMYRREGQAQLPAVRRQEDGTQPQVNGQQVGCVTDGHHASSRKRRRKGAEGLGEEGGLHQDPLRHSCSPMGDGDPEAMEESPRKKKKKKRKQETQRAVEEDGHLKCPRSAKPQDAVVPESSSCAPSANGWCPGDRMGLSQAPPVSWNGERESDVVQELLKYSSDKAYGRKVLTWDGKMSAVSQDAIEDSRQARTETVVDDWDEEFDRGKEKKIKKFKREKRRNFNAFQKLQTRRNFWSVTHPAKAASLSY

Measured: binding

B1: endogenous Las1L (enzyme, UniProt Q9Y4W2 1-734)
chain: MSWESGAGPGLGSQGMDLVWSAWYGKCVKGKGSLPLSAHGIVVAWLSRAEWDQVTVYLFCDDHKLQRYALNRITVWRSRSGNELPLAVASTADLIRCKLLDVTGGLGTDELRLLYGMALVRFVNLISERKTKFAKVPLKCLAQEVNIPDWIVDLRHELTHKKMPHINDCRRGCYFVLDWLQKTYWCRQLENSLRETWELEEFREGIEEEDQEEDKNIVVDDITEQKPEPQDDGKSTESDVKADGDSKGSEEVDSHCKKALSHKELYERARELLVSYEEEQFTVLEKFRYLPKAIKAWNNPSPRVECVLAELKGVTCENREAVLDAFLDDGFLVPTFEQLAALQIEYEDGQTEVQRGEGTDPKSHKNVDLNDVLVPKPFSQFWQPLLRGLHSQNFTQALLERMLSELPALGISGIRPTYILRWTVELIVANTKTGRNARRFSAGQWEARRGWRLFNCSASLDWPRMVESCLGSPCWASPQLLRIIFKAMGQGLPDEEQEKLLRICSIYTQSGENSLVQEGSEASPIGKSPYTLDSLYWSVKPASSSFGSEAKAQQQEEQGSVNDVKEEEKEEKEVLPDQVEEEEENDDQEEEEEDEDDEDDEEEDRMEVGPFSTGQESPTAENARLLAQKRGALQGSAWQVSSEDVRWDTFPLGRMPGQTEDPAELMLENYDTMYLLDQPVLEQRLEPSTCKTDTLGLSCGVGSGNCSNSSSSNFEGLLWSQGQLHGLKTGLQLF
binds: all assays above
